Values from PubChem BioAssay AID504804 (Drosophila RNAi Screening Center, 2011).
In all, the deposit lists about 19,000 reagents; shown is an unselected part of those that have a named target and a result. Over the whole deposit, 47 (0.25%) got an active call. 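Signals are raw, not normalised; exact z-scores behind calls not deposited; actives needed confirmation, so some wells reaching 2 SD are inactive.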 Entries without a mark were called inactive. Reagents against one gene are numbered here. Names joined by + are all predicted targets of the reagent. Reagent sequences are not shown.

Purpose: 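Fly genes whose loss lessens doxorubicin-driven cell death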 (primary screen)
System: Drosophila Kc cells
Knock-down reagent: long dsRNA against Drosophila genes, 0.5 µg dsRNA per well
Time to read-out: 96 h (48 h knock-down, then 48 h drug)
Challenge: doxorubicin 5 µg/ml for 48 h, added 48 h after dsRNA
Measurement: 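Luminescent ATP counts per replicate, not normalised, reflecting viable cells after 48 h dsRNA knock-down followed by 48 h of 5 µg/ml doxorubicin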
Scale: raw ATP luminescence: higher = more viable cells, protection from doxorubicin
Rule for the call: 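z-score of 2 or more over plate mean in both duplicates, retained only when retests and separate dsRNAs confirm the protection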

Silencing of CG34198 (GeneID 5740481) gave: raw ATP luminescence, replicate 1 = 1.26e5; raw ATP luminescence, replicate 2 = 68800.
With knock-down of Cds (GeneID 43950), the record shows raw ATP luminescence, replicate 1 = 37043; raw ATP luminescence, replicate 2 = 38977.
With knock-down of CG14556 (GeneID 43176), the record shows raw ATP luminescence, replicate 1 = 54270; raw ATP luminescence, replicate 2 = 58570.
Knock-down of CG30492 (retired record) + M7BP #1 gave: raw ATP luminescence, replicate 1 = 84543; raw ATP luminescence, replicate 2 = 84977.
Silencing of CG30492 (retired record) + M7BP #2 gave: raw ATP luminescence, replicate 1 = 71483; raw ATP luminescence, replicate 2 = 75923.
CG30492 (retired record) + M7BP #3 showed raw ATP luminescence, replicate 1 = 99053; raw ATP luminescence, replicate 2 = 1.14e5.
With knock-down of CG30492 (retired record) + M7BP #4, the record shows raw ATP luminescence, replicate 1 = 44923; raw ATP luminescence, replicate 2 = 86390.
For CG30492 (retired record) + M7BP #5 the deposit lists raw ATP luminescence, replicate 1 = 41373; raw ATP luminescence, replicate 2 = 79733.
Depletion of Lcp3 (GeneID 35819) gave: raw ATP luminescence, replicate 1 = 34670; raw ATP luminescence, replicate 2 = 79293.
scyl (GeneID 39270) gave raw ATP luminescence, replicate 1 = 87783; raw ATP luminescence, replicate 2 = 83530.
For Or67a (GeneID 39109), the values are raw ATP luminescence, replicate 1 = 1.24e5; raw ATP luminescence, replicate 2 = 98297.
Silencing of NT5E-2 (GeneID 246458) gave: raw ATP luminescence, replicate 1 = 55063; raw ATP luminescence, replicate 2 = 80563.
After knock-down of CG3420 (GeneID 35585), the screen gave raw ATP luminescence, replicate 1 = 30843; raw ATP luminescence, replicate 2 = 50993.
After knock-down of CG13068 (GeneID 39784), the record shows raw ATP luminescence, replicate 1 = 51113; raw ATP luminescence, replicate 2 = 31677.
With knock-down of lig (GeneID 35771) #1, the record shows raw ATP luminescence, replicate 1 = 58047; raw ATP luminescence, replicate 2 = 43973.
Silencing of lig (GeneID 35771) #2 came out at: raw ATP luminescence, replicate 1 = 40713; raw ATP luminescence, replicate 2 = 57587.
With knock-down of gogo (GeneID 40225) #1 the results were raw ATP luminescence, replicate 1 = 60740; raw ATP luminescence, replicate 2 = 54900.
gogo (GeneID 40225) #2 gave raw ATP luminescence, replicate 1 = 63303; raw ATP luminescence, replicate 2 = 53947.
After knock-down of dy (GeneID 32130), the record shows raw ATP luminescence, replicate 1 = 1.54e5; raw ATP luminescence, replicate 2 = 3.84e5.
After knock-down of Osi6 (GeneID 40760) the results were raw ATP luminescence, replicate 1 = 61230; raw ATP luminescence, replicate 2 = 55780.
Against Crys (GeneID 34604), the entry reads raw ATP luminescence, replicate 1 = 1.16e5; raw ATP luminescence, replicate 2 = 82667.
CG14007 (GeneID 33799) gave raw ATP luminescence, replicate 1 = 27017; raw ATP luminescence, replicate 2 = 32240.
After knock-down of Adat1 (GeneID 34787) the results were raw ATP luminescence, replicate 1 = 73367; raw ATP luminescence, replicate 2 = 72423.
CG2852 (GeneID 37591) gave raw ATP luminescence, replicate 1 = 48460; raw ATP luminescence, replicate 2 = 70777.
After knock-down of CG4593 (GeneID 31649), the screen gave raw ATP luminescence, replicate 1 = 28470; raw ATP luminescence, replicate 2 = 43040.
For GATAd (GeneID 34395), the values are raw ATP luminescence, replicate 1 = 99360; raw ATP luminescence, replicate 2 = 78707.
Acsx4 (GeneID 42355) scored raw ATP luminescence, replicate 1 = 71480; raw ATP luminescence, replicate 2 = 47570.
Depletion of CG14237 (GeneID 43194) came out at: raw ATP luminescence, replicate 1 = 39280; raw ATP luminescence, replicate 2 = 46170.
